{"sequences": {"note": "Sequences of proteins named here, by UniProt entry; tags and fusion partners are left off. A change or cut given only in a name is not applied to a line headed by its entry.", "UniProt Q13017, whole entry, looked up": "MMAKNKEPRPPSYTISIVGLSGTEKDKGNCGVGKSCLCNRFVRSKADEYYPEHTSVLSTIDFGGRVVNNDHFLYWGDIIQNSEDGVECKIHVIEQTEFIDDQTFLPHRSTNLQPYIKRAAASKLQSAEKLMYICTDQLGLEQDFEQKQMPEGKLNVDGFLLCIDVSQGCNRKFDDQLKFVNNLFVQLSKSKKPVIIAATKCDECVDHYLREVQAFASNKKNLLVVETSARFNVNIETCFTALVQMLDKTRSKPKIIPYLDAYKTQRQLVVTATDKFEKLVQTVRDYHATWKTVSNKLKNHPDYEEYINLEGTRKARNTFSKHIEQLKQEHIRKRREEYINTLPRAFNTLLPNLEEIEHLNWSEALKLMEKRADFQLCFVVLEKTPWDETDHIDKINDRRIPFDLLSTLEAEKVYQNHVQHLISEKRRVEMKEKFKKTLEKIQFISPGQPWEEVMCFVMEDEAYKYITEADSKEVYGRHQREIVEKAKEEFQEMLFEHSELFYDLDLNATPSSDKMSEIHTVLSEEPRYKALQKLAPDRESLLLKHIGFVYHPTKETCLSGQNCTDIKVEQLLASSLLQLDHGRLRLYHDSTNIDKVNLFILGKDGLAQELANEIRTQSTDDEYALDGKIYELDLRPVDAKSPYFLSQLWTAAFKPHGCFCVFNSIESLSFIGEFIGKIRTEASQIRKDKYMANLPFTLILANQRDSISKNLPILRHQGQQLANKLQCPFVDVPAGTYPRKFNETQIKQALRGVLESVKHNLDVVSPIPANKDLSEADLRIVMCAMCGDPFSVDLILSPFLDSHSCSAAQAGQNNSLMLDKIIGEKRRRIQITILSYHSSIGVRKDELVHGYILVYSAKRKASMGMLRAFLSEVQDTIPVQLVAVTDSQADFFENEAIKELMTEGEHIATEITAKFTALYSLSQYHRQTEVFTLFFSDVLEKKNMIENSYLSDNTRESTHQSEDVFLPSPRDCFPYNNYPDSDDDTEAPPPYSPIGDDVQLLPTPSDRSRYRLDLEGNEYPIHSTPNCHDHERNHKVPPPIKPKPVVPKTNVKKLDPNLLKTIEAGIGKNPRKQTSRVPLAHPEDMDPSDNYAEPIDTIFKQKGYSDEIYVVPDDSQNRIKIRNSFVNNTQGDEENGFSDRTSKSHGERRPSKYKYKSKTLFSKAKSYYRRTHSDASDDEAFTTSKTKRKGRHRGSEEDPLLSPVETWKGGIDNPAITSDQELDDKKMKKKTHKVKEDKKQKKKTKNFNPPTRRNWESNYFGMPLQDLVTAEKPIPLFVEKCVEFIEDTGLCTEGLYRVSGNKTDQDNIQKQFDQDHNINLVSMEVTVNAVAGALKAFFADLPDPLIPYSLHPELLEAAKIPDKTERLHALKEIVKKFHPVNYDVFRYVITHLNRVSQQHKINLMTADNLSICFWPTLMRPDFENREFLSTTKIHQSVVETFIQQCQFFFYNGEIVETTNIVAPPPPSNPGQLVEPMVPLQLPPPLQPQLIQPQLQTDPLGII", "UniProt Q13247": "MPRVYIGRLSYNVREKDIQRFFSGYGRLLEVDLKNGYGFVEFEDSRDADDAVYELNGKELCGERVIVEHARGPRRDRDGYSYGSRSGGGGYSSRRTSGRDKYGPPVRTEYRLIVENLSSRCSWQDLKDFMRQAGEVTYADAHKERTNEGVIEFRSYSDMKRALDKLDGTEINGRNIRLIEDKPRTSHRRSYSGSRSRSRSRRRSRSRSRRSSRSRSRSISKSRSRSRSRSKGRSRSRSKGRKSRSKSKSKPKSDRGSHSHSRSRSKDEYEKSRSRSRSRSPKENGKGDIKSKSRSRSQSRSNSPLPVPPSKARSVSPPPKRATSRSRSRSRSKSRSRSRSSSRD", "UniProt Q15149": "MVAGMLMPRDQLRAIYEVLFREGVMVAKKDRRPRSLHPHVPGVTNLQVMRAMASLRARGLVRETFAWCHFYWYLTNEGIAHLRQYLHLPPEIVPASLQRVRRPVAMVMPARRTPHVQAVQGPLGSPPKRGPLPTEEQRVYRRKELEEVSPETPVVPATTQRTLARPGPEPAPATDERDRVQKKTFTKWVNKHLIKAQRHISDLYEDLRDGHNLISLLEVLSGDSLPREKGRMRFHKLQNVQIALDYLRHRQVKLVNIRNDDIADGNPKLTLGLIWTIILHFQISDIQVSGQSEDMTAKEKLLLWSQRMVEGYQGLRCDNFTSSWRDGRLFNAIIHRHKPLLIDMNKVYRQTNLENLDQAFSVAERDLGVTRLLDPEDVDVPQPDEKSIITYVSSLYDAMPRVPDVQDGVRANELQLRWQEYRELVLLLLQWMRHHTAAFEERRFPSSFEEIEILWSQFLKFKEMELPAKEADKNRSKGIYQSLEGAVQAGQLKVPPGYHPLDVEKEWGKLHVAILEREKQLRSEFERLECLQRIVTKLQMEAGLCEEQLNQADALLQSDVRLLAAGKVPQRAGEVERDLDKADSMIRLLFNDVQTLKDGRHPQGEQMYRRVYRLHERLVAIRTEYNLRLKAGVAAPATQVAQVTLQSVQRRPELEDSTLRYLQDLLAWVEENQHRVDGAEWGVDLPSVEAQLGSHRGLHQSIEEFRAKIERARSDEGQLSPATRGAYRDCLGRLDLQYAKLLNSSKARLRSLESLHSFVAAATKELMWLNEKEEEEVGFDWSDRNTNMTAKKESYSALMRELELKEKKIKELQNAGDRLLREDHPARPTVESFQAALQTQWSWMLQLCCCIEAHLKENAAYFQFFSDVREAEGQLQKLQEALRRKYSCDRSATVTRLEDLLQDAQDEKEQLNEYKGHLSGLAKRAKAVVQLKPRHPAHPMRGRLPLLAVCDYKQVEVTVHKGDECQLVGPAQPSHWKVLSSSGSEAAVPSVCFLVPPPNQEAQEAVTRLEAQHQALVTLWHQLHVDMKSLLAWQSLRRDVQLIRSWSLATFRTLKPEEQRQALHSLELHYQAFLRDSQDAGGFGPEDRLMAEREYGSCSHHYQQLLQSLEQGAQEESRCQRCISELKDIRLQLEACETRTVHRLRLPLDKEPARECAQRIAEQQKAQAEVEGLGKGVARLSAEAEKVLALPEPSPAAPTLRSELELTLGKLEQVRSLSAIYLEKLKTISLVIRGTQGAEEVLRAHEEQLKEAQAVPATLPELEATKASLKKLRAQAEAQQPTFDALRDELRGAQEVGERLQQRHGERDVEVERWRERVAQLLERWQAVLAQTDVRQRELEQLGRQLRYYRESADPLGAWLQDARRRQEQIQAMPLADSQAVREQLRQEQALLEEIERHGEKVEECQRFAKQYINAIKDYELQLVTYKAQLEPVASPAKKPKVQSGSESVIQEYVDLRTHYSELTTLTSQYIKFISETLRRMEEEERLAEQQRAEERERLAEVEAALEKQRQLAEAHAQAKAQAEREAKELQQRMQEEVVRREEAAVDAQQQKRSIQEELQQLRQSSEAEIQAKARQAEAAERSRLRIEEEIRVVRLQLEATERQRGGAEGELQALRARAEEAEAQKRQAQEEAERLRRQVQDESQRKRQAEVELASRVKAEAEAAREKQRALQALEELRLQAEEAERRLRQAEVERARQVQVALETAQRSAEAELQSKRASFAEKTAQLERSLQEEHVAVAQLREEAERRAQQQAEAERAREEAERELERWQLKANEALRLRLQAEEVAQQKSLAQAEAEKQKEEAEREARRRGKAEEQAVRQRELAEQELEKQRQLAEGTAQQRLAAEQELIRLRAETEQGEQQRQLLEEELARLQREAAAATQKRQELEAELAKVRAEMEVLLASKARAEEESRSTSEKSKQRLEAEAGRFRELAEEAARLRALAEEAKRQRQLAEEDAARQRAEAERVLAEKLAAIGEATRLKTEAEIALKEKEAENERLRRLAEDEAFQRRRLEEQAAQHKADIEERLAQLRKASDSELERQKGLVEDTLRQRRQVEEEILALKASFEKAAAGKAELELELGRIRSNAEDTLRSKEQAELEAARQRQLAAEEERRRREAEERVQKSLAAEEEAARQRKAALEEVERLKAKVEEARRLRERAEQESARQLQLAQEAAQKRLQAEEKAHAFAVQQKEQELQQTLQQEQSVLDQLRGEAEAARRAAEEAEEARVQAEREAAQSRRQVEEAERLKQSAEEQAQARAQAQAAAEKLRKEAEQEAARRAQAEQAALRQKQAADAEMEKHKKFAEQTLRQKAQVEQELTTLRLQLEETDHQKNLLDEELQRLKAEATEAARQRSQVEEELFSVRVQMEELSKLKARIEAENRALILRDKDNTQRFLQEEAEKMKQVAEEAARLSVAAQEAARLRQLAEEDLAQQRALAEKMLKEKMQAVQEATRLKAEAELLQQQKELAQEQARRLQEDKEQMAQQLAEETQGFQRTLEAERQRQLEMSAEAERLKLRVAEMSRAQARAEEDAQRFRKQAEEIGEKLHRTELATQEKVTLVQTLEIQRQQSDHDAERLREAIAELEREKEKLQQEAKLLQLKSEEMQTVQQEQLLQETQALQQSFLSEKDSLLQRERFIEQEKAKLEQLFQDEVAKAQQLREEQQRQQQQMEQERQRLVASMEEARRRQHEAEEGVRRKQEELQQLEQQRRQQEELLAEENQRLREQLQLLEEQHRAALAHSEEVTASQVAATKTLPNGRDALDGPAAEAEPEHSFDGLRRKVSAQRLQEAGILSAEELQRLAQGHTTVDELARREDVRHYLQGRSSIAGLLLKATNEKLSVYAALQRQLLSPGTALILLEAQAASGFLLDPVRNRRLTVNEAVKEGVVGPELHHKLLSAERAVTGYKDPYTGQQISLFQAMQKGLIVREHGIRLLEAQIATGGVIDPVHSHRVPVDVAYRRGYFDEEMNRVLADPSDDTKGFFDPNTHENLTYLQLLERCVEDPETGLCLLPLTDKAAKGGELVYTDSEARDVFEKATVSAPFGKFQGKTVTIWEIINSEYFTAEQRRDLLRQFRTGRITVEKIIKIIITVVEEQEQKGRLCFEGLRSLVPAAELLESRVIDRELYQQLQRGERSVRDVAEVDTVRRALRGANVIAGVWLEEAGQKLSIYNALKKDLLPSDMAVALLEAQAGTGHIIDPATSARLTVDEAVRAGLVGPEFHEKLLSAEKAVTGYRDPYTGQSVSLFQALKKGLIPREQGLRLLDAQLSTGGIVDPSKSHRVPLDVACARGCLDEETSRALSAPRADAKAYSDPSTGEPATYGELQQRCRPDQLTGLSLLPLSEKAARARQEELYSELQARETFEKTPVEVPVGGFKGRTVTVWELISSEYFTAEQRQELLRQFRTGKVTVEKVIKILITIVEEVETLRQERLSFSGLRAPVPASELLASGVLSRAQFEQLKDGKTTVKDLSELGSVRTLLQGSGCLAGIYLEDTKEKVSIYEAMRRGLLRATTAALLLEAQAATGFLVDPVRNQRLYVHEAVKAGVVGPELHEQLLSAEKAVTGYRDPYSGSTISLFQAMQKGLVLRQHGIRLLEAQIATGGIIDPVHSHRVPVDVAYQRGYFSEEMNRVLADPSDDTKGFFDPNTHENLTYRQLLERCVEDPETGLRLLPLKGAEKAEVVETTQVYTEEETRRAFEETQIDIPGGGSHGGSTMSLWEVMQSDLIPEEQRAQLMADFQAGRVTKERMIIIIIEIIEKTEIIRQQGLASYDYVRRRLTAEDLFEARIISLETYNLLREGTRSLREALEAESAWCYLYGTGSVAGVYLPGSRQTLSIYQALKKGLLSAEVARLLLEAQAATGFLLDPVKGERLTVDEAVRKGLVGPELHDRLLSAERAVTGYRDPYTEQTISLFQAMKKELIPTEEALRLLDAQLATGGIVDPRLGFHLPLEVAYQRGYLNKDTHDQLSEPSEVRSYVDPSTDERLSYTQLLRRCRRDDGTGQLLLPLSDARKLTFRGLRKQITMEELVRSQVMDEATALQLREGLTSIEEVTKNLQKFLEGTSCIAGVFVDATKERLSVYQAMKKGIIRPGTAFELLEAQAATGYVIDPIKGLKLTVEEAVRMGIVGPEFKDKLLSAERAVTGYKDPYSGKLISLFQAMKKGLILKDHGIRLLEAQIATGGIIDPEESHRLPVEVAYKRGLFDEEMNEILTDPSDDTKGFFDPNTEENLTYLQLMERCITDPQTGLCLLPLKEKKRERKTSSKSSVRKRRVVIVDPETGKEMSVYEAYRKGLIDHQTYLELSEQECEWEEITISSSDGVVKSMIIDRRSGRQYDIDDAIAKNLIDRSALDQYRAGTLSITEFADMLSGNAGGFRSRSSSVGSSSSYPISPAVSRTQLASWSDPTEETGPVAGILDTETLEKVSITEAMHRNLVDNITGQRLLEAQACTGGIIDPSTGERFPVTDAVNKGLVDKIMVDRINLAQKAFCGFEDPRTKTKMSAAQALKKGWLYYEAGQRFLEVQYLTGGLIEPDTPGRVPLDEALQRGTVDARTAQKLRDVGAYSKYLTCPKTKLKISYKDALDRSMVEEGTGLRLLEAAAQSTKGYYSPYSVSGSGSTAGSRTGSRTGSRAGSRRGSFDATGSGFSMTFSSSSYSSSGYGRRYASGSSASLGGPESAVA"}, "source": "the supplement of paper PMC5836539", "note": "± gives the standard deviation of the averaged measurements. Most values lie within the scatter of the assay; repeated measurements hardly agree.", "data": [{"compound": "CC[C@@H](C)Nc1cc(C(=O)N[C@H]2C[C@H]3CC[C@@H](C2)N3c2ccc(C(=O)C3CC3)cn2)c(C)cc1C(N)=O [XL888]", "assay": "phosphopeptide melting temperature shift (XL888 minus DMSO); higher = stabilised by drug treatment", "settings": "100 µM; treatment time 2 h; layout: intact cells; SK-Mel 28", "experimental": "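Phospho-TPP in intact SK-Mel 28 cells treated with 100 uM XL888 or DMSO for 2 h, heated at 10 temperatures (37-67 C) for 3 min, soluble fraction TMT10plex-labelled and TiO2 phospho-enriched. Melting curves were fitted per phosphopeptide; the value is the melting point difference (drug minus vehicle) in each of two biological replicates.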", "units": {"phosphopeptide melting temperature shift": "°C"}, "values": [{"target": "UniProt Q05209-2_phosphosite_473 (phosphosite position: 473)", "phosphopeptide melting temperature shift": "1.54 ± 1.2"}, {"target": "UniProt Q05209-2_phosphosite_476 (phosphosite position: 476)", "phosphopeptide melting temperature shift": "1.54 ± 1.2"}, {"target": "UniProt Q05209-2_phosphosite_478 (phosphosite position: 478)", "phosphopeptide melting temperature shift": 0.635}, {"target": "UniProt Q05655_phosphosite_304 (phosphosite position: 304)", "phosphopeptide melting temperature shift": -0.184}, {"target": "UniProt Q07866-6_phosphosite_524 (phosphosite position: 524)", "phosphopeptide melting temperature shift": -0.47}, {"target": "UniProt Q07955_phosphosite_234 (phosphosite position: 234)", "phosphopeptide melting temperature shift": 0.626}, {"target": "UniProt Q07955_phosphosite_238 (phosphosite position: 238)", "phosphopeptide melting temperature shift": -4.13}, {"target": "UniProt Q08117_phosphosite_196 (phosphosite position: 196)", "phosphopeptide melting temperature shift": "1.76 ± 0.92"}, {"target": "UniProt Q08170_phosphosite_269 (phosphosite position: 269)", "phosphopeptide melting temperature shift": "0.129 ± 0.021"}, {"target": "UniProt Q08170_phosphosite_431 (phosphosite position: 431)", "phosphopeptide melting temperature shift": "0.182 ± 1.9"}, {"target": "UniProt Q08378-2_phosphosite_389 (phosphosite position: 389)", "phosphopeptide melting temperature shift": -0.379}, {"target": "UniProt Q12851-2_phosphosite_328 (phosphosite position: 328)", "phosphopeptide melting temperature shift": "-0.397 ± 0.18"}, {"target": "UniProt Q12929_phosphosite_685 (phosphosite position: 685)", "phosphopeptide melting temperature shift": "-0.0739 ± 1.2"}, {"target": "UniProt Q13017-2_phosphosite_590 (phosphosite position: 590)", "phosphopeptide melting temperature shift": "0.813 ± 0.34"}, {"target": "UniProt Q13017-2_phosphosite_1173 (phosphosite position: 1173)", "phosphopeptide melting temperature shift": 2.53}, {"target": "UniProt Q13017-2_phosphosite_1176 (phosphosite position: 1176)", "phosphopeptide melting temperature shift": 2.53}, {"target": "UniProt Q13017-2_phosphosite_1195 (phosphosite position: 1195)", "phosphopeptide melting temperature shift": "0.00693 ± 0.66"}, {"target": "UniProt Q13033-2_phosphosite_257 (phosphosite position: 257)", "phosphopeptide melting temperature shift": "0.729 ± 0.21"}, {"target": "UniProt Q13136-2_phosphosite_242 (phosphosite position: 242)", "phosphopeptide melting temperature shift": 2.2}, {"target": "UniProt Q13136-2_phosphosite_244 (phosphosite position: 244)", "phosphopeptide melting temperature shift": 1.03}, {"target": "UniProt Q13136-2_phosphosite_708 (phosphosite position: 708)", "phosphopeptide melting temperature shift": "0.594 ± 0.66"}, {"target": "UniProt Q13188_phosphosite_316 (phosphosite position: 316)", "phosphopeptide melting temperature shift": "1.69 ± 0.48"}, {"target": "UniProt Q13247_phosphosite_314 (phosphosite position: 314)", "phosphopeptide melting temperature shift": "1.08 ± 2.4"}, {"target": "UniProt Q13247_phosphosite_316 (phosphosite position: 316)", "phosphopeptide melting temperature shift": "1.08 ± 2.4"}, {"target": "UniProt Q13409-3_phosphosite_81 (phosphosite position: 81)", "phosphopeptide melting temperature shift": "2.01 ± 1.1"}, {"target": "UniProt Q13425-2_phosphosite_233 (phosphosite position: 233)", "phosphopeptide melting temperature shift": 1.58}, {"target": "UniProt Q13428-6_phosphosite_171 (phosphosite position: 171)", "phosphopeptide melting temperature shift": "-0.258 ± 0.17"}, {"target": "UniProt Q13439-5_phosphosite_41 (phosphosite position: 41)", "phosphopeptide melting temperature shift": 3.39}, {"target": "UniProt Q13439-5_phosphosite_93 (phosphosite position: 93)", "phosphopeptide melting temperature shift": 2.42}, {"target": "UniProt Q13469-3_phosphosite_227 (phosphosite position: 227)", "phosphopeptide melting temperature shift": 0.861}, {"target": "UniProt Q13469-3_phosphosite_343 (phosphosite position: 343)", "phosphopeptide melting temperature shift": 2.48}, {"target": "UniProt Q13563-3_phosphosite_756 (phosphosite position: 756)", "phosphopeptide melting temperature shift": -2.5}, {"target": "UniProt Q14004-2_phosphosite_437 (phosphosite position: 437)", "phosphopeptide melting temperature shift": "-0.549 ± 1.6"}, {"target": "UniProt Q14004-2_phosphosite_439 (phosphosite position: 439)", "phosphopeptide melting temperature shift": "-0.549 ± 1.6"}, {"target": "UniProt Q14157-4_phosphosite_447 (phosphosite position: 447)", "phosphopeptide melting temperature shift": "2.47 ± 1.3"}, {"target": "UniProt Q14160-2_phosphosite_423 (phosphosite position: 423)", "phosphopeptide melting temperature shift": -1.69}, {"target": "UniProt Q14161-5_phosphosite_394 (phosphosite position: 394)", "phosphopeptide melting temperature shift": 5.69}, {"target": "UniProt Q14161-5_phosphosite_397 (phosphosite position: 397)", "phosphopeptide melting temperature shift": 5.69}, {"target": "UniProt Q14195-2_phosphosite_622 (phosphosite position: 622)", "phosphopeptide melting temperature shift": 0.107}, {"target": "UniProt Q14671-2_phosphosite_683 (phosphosite position: 683)", "phosphopeptide melting temperature shift": 0.21}, {"target": "UniProt Q14676-3_phosphosite_376 (phosphosite position: 376)", "phosphopeptide melting temperature shift": "4.82 ± 1.1"}, {"target": "UniProt Q14676-3_phosphosite_402 (phosphosite position: 402)", "phosphopeptide melting temperature shift": 1.2}, {"target": "UniProt Q14676-3_phosphosite_404 (phosphosite position: 404)", "phosphopeptide melting temperature shift": 1.2}, {"target": "UniProt Q14676-3_phosphosite_453 (phosphosite position: 453)", "phosphopeptide melting temperature shift": 4.89}, {"target": "UniProt Q14676-3_phosphosite_455 (phosphosite position: 455)", "phosphopeptide melting temperature shift": "4.53 ± 0.51"}, {"target": "UniProt Q14677-2_phosphosite_209 (phosphosite position: 209)", "phosphopeptide melting temperature shift": "2.69 ± 0.56"}, {"target": "UniProt Q14677-2_phosphosite_214 (phosphosite position: 214)", "phosphopeptide melting temperature shift": 6.77}, {"target": "UniProt Q14678-2_phosphosite_28 (phosphosite position: 28)", "phosphopeptide melting temperature shift": 3.22}, {"target": "UniProt Q14678-2_phosphosite_167 (phosphosite position: 167)", "phosphopeptide melting temperature shift": -0.177}, {"target": "UniProt Q14938-6_phosphosite_272 (phosphosite position: 272)", "phosphopeptide melting temperature shift": "0.206 ± 0.29"}, {"target": "UniProt Q15054-3_phosphosite_201 (phosphosite position: 201)", "phosphopeptide melting temperature shift": "0.8 ± 0.77"}, {"target": "UniProt Q15139_phosphosite_205 (phosphosite position: 205)", "phosphopeptide melting temperature shift": "-2 ± 1.9"}, {"target": "UniProt Q15139_phosphosite_208 (phosphosite position: 208)", "phosphopeptide melting temperature shift": 2.03}, {"target": "UniProt Q15139_phosphosite_397 (phosphosite position: 397)", "phosphopeptide melting temperature shift": 0.42}, {"target": "UniProt Q15149_phosphosite_125 (phosphosite position: 125)", "phosphopeptide melting temperature shift": 2.87}, {"target": "UniProt Q15149_phosphosite_149 (phosphosite position: 149)", "phosphopeptide melting temperature shift": -0.546}, {"target": "UniProt Q15149_phosphosite_1435 (phosphosite position: 1435)", "phosphopeptide melting temperature shift": "0.966 ± 0.3"}, {"target": "UniProt Q15149_phosphosite_4382 (phosphosite position: 4382)", "phosphopeptide melting temperature shift": "-0.487 ± 0.85"}, {"target": "UniProt Q15149_phosphosite_4389 (phosphosite position: 4389)", "phosphopeptide melting temperature shift": -0.449}, {"target": "UniProt Q15149_phosphosite_4613 (phosphosite position: 4613)", "phosphopeptide melting temperature shift": -2.21}, {"target": "UniProt Q15149_phosphosite_4626 (phosphosite position: 4626)", "phosphopeptide melting temperature shift": 5.77}, {"target": "UniProt Q15365_phosphosite_173 (phosphosite position: 173)", "phosphopeptide melting temperature shift": "1.13 ± 0.22"}, {"target": "UniProt Q15365_phosphosite_190 (phosphosite position: 190)", "phosphopeptide melting temperature shift": "1.34 ± 0.37"}, {"target": "UniProt Q15555-4_phosphosite_147 (phosphosite position: 147)", "phosphopeptide melting temperature shift": "1.61 ± 0.75"}, {"target": "UniProt Q15637-4_phosphosite_80 (phosphosite position: 80)", "phosphopeptide melting temperature shift": "-1.48 ± 0.59"}, {"target": "UniProt Q15637-4_phosphosite_82 (phosphosite position: 82)", "phosphopeptide melting temperature shift": "-1.48 ± 0.59"}, {"target": "UniProt Q15649-2_phosphosite_80 (phosphosite position: 80)", "phosphopeptide melting temperature shift": 0.204}, {"target": "UniProt Q16181-2_phosphosite_227 (phosphosite position: 227)", "phosphopeptide melting temperature shift": "0.831 ± 0.51"}, {"target": "UniProt Q16637-4_phosphosite_31 (phosphosite position: 31)", "phosphopeptide melting temperature shift": "0.0256 ± 0.65"}, {"target": "UniProt Q16655_phosphosite_84 (phosphosite position: 84)", "phosphopeptide melting temperature shift": 3.24}, {"target": "UniProt Q16655_phosphosite_87 (phosphosite position: 87)", "phosphopeptide melting temperature shift": "2.14 ± 1.2"}, {"target": "UniProt Q16666-3_phosphosite_106 (phosphosite position: 106)", "phosphopeptide melting temperature shift": -0.216}, {"target": "UniProt Q16666-3_phosphosite_153 (phosphosite position: 153)", "phosphopeptide melting temperature shift": "1.27 ± 0.59"}, {"target": "UniProt Q16666-3_phosphosite_668 (phosphosite position: 668)", "phosphopeptide melting temperature shift": "0.212 ± 0.19"}, {"target": "UniProt Q92538-3_phosphosite_349 (phosphosite position: 349)", "phosphopeptide melting temperature shift": 0.643}, {"target": "UniProt Q92538-3_phosphosite_352 (phosphosite position: 352)", "phosphopeptide melting temperature shift": "2.11 ± 1.2"}, {"target": "UniProt Q92538-3_phosphosite_1475 (phosphosite position: 1475)", "phosphopeptide melting temperature shift": "3.68 ± 1.9"}]}]}
